Literature values, collected in patent US20210346385A1, “TASTE-MASKED DOSAGE FORMS” (MSB Holdings, Inc, priority 2018, published 2021).
At least one compound was matched to its structure with a doubt left. Some entries share one result that the patent states for a list of compounds.

Details: cited from earlier work

CN1CC(=O)N2[C@H](c3ccc4c(c3)OCO4)c3[nH]c4ccccc4c3C[C@@H]2C1=O [tadalafil]
Duration of effects after taking the tablet (most men): 24 to 36 h
Time to start to work (tablets, depending on meal and gastric emptying time): 30 to 60 min
